Laboratory results: PubChem BioAssay AID1259274 (Sanger Institute, 2017)
Aim: 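Kinase knock-downs that cut colorectal cancer cell viability or boost drug killing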 (primary screen). Cells: human RKO colorectal cancer cells. Reagents: siRNA pool against human genes. Treatment: anchor drugs BYL719 at 1 µM, cetuximab at 5 µg/ml or trametinib at 10 nM; DMSO vehicle as the no-drug arm. Measured: 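Viability of cells versus control pool 2 (non-targeting) averaged across replicates; knock-down-only robust z-score; for every anchor drug (BYL719, cetuximab, trametinib) a synergy score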. Reading the numbers: viability z-score, siRNA alone: higher = more viable cells; low values mean essential gene. Rule for the call: 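a single knock-down scoring under -3 on the robust z-score, meaning fewer cells, counts as essential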. Meaning of the calls: active = essential when knocked down alone; inactive = no change alone.
In all, the deposit lists 794 reagents; below is a part drawn at random. 11 of them (1.4%) count as active. 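Calls rest on knock-down without drug only; synergy scores with anchor drugs were not used for the essential call.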 Further read-outs or replicates are left out here. Not stated in the record: the amount of reagent, the time to read-out.

Against FLT3 (GeneID 2322), the entry reads viability z-score, siRNA alone 0.489; inactive.
Silencing of CDK14 (GeneID 5218) resulted in: viability z-score, siRNA alone 1.19; inactive.
CLK4 (GeneID 57396) gave viability z-score, siRNA alone -0.233; inactive.
With knock-down of SGK3 (GeneID 23678), the record shows viability z-score, siRNA alone 0.0812; inactive.
Against LCK (GeneID 3932) the deposit lists viability z-score, siRNA alone 0.128; inactive.
GSK3A (GeneID 2931) scored viability z-score, siRNA alone 0.442; inactive.
After knock-down of MAPK3 (GeneID 5595), the record shows viability z-score, siRNA alone -0.718; inactive.
TEK (GeneID 7010) scored viability z-score, siRNA alone 1.19; inactive.
Depletion of CERK (GeneID 64781) gave: viability z-score, siRNA alone 0.0782; inactive.
DGKA (GeneID 1606) scored viability z-score, siRNA alone -1.02; inactive.
Knock-down of IDH2 (GeneID 3418) came out at: viability z-score, siRNA alone 1.19; inactive.
Depletion of ACVR1B (GeneID 91) gave: viability z-score, siRNA alone 0.366; inactive.
Against CDK5 (GeneID 1020), the entry reads viability z-score, siRNA alone 0.0615; inactive.
Knock-down of STK4 (GeneID 6789) came out at: viability z-score, siRNA alone 1.11; inactive.
For ATM (GeneID 472), the values are viability z-score, siRNA alone -0.465; inactive.
CKS2 (GeneID 1164) showed viability z-score, siRNA alone 0.257; inactive.
Against CDK9 (GeneID 1025), the values are viability z-score, siRNA alone 1.19; inactive.
With knock-down of THNSL1 (GeneID 79896) the results were viability z-score, siRNA alone 0.299; inactive.
For MAP2K2 (GeneID 5605), the entry reads viability z-score, siRNA alone -0.393; inactive.
Silencing of AK5 (GeneID 26289) resulted in: viability z-score, siRNA alone 0.175; inactive.
Against EPHA6 (GeneID 285220) the deposit lists viability z-score, siRNA alone -1.04; inactive.
After knock-down of STK38 (GeneID 11329) the results were viability z-score, siRNA alone 0.0514; inactive.
HIPK2 (GeneID 28996) scored viability z-score, siRNA alone -0.714; inactive.
With knock-down of TTBK2 (GeneID 146057) the results were viability z-score, siRNA alone -0.622; inactive.
GK2 (GeneID 2712) showed viability z-score, siRNA alone 1.06; inactive.
After knock-down of ARAF (GeneID 369), the record shows viability z-score, siRNA alone 1.19; inactive.
With knock-down of JAK1 (GeneID 3716) the results were viability z-score, siRNA alone 1.19; inactive.
For KALRN (GeneID 8997), the values are viability z-score, siRNA alone 0.252; inactive.
Against MVK (GeneID 4598), the entry reads viability z-score, siRNA alone 1.12; inactive.
Silencing of NEK11 (GeneID 79858) resulted in: viability z-score, siRNA alone -0.789; inactive.
With knock-down of HK1 (GeneID 3098) the results were viability z-score, siRNA alone 1.08; inactive.
SCYL1 (GeneID 57410) showed viability z-score, siRNA alone 0.422; inactive.
Silencing of BCKDK (GeneID 10295) resulted in: viability z-score, siRNA alone 1.19; inactive.
Knock-down of CLK1 (GeneID 1195) gave: viability z-score, siRNA alone 1.19; inactive.
For TLK2 (GeneID 11011), the values are viability z-score, siRNA alone -0.493; inactive.
Silencing of MPP1 (GeneID 4354) gave: viability z-score, siRNA alone 1.19; inactive.

Quoted from the entries so far (4 entries):
KALRN (GeneID 8997) — viability z-score, siRNA alone = 0.252; outcome = inactive
MVK (GeneID 4598) — viability z-score, siRNA alone = 1.12; outcome = inactive
NEK11 (GeneID 79858) — viability z-score, siRNA alone = -0.789; outcome = inactive
HK1 (GeneID 3098) — viability z-score, siRNA alone = 1.08; outcome = inactive
